PubChem BioAssay AID1259308 – NCATS, 2017
Aim: 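Knock-downs that increase output of a recombinant reporter protein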 (primary screen). Cell system: human HEK293 embryonic kidney cells stably expressing firefly luciferase (HEK-CMV-Luc2-Hygro). Knock-down reagent: single siRNA against human genes, 0.8 pmol siRNA per well. Timing: 72 h. Read-out: 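Luciferase light (ONE-Glo) measured on one replicate plate set and viability (CellTiter-Glo) on the other, scaled to a negative control siRNA, with robust z-scores and luciferase per cell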. Reading the numbers: total luciferase, z-score and total luciferase, % of control: higher = more reporter protein produced; luciferase per cell, z-score: higher = more reporter output per viable cell; viable cells, % of control: higher = more viable cells. Hit rule: 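An siRNA counts as active if its total luciferase robust z-score exceeds 3; genes with two or more such siRNAs out of three were retested with fresh siRNAs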. Calls: active = raised luciferase; inactive = no rise.
Here is a random part of about 59,000 reagents. In the full data, about 1,510 (2.6%) got an active call. 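Calls use total luciferase alone and ignore viability, so some active siRNAs may act by altering cell number.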 A number with no mark means an inactive call. Reagents against one gene are numbered here.

Gene	reagent	total luciferase, z-score	total luciferase, % of control	luciferase per cell, z-score	viable cells, % of control
NOP56 (NOP56 ribonucleoprotein)	1	-1.68	48.5	-1.38	77.9
NOP56 (NOP56 ribonucleoprotein)	2	-0.867	64.6	-0.624	85.1
NOP56 (NOP56 ribonucleoprotein)	3	-1.1	59.9	-0.371	73.8
DGKD (diacylglycerol kinase delta)	1	1.86	119	1.03	101
DGKD (diacylglycerol kinase delta)	2	0.227	86.4	0.0476	95.3
DGKD (diacylglycerol kinase delta)	3	2.77	137	1.71	97.4
CDH26 (cadherin 26)	1	0.253	86.9	0.172	92.8
CDH26 (cadherin 26)	2	-0.209	77.7	0.425	77.7
CDH26 (cadherin 26)	3	-0.692	68.1	-0.553	88.1
PRR3 (proline rich 3)	1	0.191	85.7	0.389	86.4
PRR3 (proline rich 3)	2	-0.456	72.8	-0.477	92.3
PRR3 (proline rich 3)	3	-0.632	69.3	-1.43	113

Next part, starting with the last 3 of the part before.
Gene	reagent	total luciferase, z-score	total luciferase, % of control	luciferase per cell, z-score	viable cells, % of control
PRR3 (proline rich 3)	1	0.191	85.7	0.389	86.4
PRR3 (proline rich 3)	2	-0.456	72.8	-0.477	92.3
PRR3 (proline rich 3)	3	-0.632	69.3	-1.43	113
TNRC6A (trinucleotide repeat containing adaptor 6A)	1	0.0345	82.6	0.0095	92
TNRC6A (trinucleotide repeat containing adaptor 6A)	2	-0.0175	81.5	0.068	89.5
TNRC6A (trinucleotide repeat containing adaptor 6A)	3	-0.213	77.6	-0.254	92.8
NSD1 (nuclear receptor binding SET domain protein 1)	1	-0.922	63.6	0.625	60.3
NSD1 (nuclear receptor binding SET domain protein 1)	2	1.41	110	1.18	90.1
NSD1 (nuclear receptor binding SET domain protein 1)	3	-0.652	68.9	0.178	73.5
FBXO48 (F-box protein 48)	1	1.76	117	2.03	76.5
FBXO48 (F-box protein 48)	2	0.23	86.5	-0.0381	97.6
FBXO48 (F-box protein 48)	3	0.911	100	0.633	94.6
C1orf174 (chromosome 1 open reading frame 174)	1	2.39	129	1.99	85.5
C1orf174 (chromosome 1 open reading frame 174)	2	0.318	88.2	0.317	90.7
C1orf174 (chromosome 1 open reading frame 174)	3	1.17	105	1.18	86.1
